The record followed here is PMC12120744.

Chains of the proteins cited; added tags and fusions are not shown. Residues count along the entry.
UniProt P01106, residues 16-454: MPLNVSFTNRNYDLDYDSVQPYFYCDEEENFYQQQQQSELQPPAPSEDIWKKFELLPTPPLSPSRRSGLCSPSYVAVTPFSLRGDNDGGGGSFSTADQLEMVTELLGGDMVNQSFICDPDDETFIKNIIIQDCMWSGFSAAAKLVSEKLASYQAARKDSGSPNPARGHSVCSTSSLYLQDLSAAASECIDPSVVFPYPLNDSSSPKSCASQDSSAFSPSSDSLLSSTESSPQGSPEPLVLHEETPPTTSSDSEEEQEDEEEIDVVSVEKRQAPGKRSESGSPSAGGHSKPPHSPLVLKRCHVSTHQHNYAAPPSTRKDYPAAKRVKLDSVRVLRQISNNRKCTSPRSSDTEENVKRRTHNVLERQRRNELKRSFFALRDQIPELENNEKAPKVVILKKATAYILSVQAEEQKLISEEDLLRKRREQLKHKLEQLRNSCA

The target of assay [1] is T1, Flag-RNF112 (UniProt Q9ULX5).
T1 sequence: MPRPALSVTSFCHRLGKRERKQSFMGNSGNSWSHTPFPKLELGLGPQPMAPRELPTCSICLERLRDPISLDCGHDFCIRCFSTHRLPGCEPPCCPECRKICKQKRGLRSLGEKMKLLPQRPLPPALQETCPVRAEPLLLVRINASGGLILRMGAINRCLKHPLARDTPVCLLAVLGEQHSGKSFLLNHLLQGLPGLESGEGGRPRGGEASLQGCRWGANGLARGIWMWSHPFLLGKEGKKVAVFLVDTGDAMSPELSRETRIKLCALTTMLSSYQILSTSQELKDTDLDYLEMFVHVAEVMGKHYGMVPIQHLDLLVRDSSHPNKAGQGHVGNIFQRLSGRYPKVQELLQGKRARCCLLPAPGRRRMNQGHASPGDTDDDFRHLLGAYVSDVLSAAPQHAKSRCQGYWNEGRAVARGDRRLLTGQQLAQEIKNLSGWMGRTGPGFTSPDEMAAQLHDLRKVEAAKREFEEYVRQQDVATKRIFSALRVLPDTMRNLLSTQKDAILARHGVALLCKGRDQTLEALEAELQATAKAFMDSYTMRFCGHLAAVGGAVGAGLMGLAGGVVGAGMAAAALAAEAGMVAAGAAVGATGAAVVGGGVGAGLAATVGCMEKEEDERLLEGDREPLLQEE
As to the kind of experiment: co-IP; 293T cells transfected with the respective plasmids for 48 h, MG132 (10 µM) for 8 h; lysis in IP buffer 1 h at 4 °C; anti-Flag or anti-HA antibody overnight at 4 °C, magnetic beads 2 h; Western blot. A general note: A western blot detects proteins with antibodies after separation by electrophoresis.

Assay [2] addresses T2, RNF112 (endogenous, 293T cells) (human (endogenous in 293T)) (UniProt Q9ULX5).
T2 sequence: T1 sequence
As to the kind of experiment: co-IP; endogenous proteins; IP with RNF112 antibody in 293T cell lysates; Western blot.

These are yes or no findings as the source states them, for the method shown. Binding seen in cells or lysates may run through a third protein. Some binding calls cover weakened binding; strength is not graded here. For some assays here: Where a sequence is shown, tags or fusion partners need not be part of it.

Consider HA-c-Myc (from UniProt P01106-1 1-439), for which the binding result in assay [1] was “binds”.
Turning to “c-Myc (endogenous, 293T cells) (from UniProt P01106-1 1-439)”, the binding entry in assay [2] was “binds”.
